# Publication PMC5681508
# These are yes or no findings as the source states them, for the method shown. In cells and extracts the contact can be indirect. A result given as binding can be weak or reduced; the word gives no strength. Tags and fused reporters may be left off the sequences shown.
# B1: HA-tagged VDR–wild type (vitamin D receptor) (protein, UniProt P11473 1-427)
# chain: MEAMAASTSLPDPGDFDRNVPRICGVCGDRATGFHFNAMTCEGCKGFFRRSMKRKALFTCPFNGDCRITKDNRRHCQACRLKRCVDIGMMKEFILTDEEVQRKREMILKRKEEEALKDSLRPKLSEEQQRIIAILLDAHHKTYDPTYSDFCQFRPPVRVNDGGGSHPSRPNSRHTPSFSGDSSSSCSDHCITSSDMMDSSSFSNLDLSEEDSDDPSVTLELSQLSMLPHLADLVSYSIQKVIGFAKMIPGFRDLTSEDQIVLLKSSAIEVIMLRSNESFTMDDMSWTCGNQDYKYRVSDVTKAGHSLELIEPLIKFQVGLKKLNLHEEEHVLLMAICIVSPDRPGVQDAALIEAIQDRLSNTLQTYIRCRHPPPGSHLLYAKMIQKLADLRSLNEEHSKQYRCLSFQPECSMKLTPLVLEVFGNEIS
# Target: retinoid X receptor (RXR), endogenous (human (endogenous in HeLa))
# Assay: co-IP; endogenous RXR immunoprecipitated with RXR antibody (SC-774) on protein A/G magnetic beads (Pierce Crosslink Magnetic IP/Co-IP Kit) from 400 μg lysate of HeLa or HEK293 cells transfected with HA-VDR, 1 hour at room temperature; western blot with antibodies against HA or VDR; in the absence or presence of Vit D3
binder,measurement,value
B1,binding,binds
